PubChem BioAssay AID1671195 | Yale University, 2021
Here is an unselected part of about 22,000 deposited reagents. Of all reagents, about 1,510 (6.9%) were called active. 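Active includes knockdowns raising or lowering LDL uptake; positive z-scores mean more uptake, negative mean less.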

Aim: 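Regulators of LDL receptor activity judged by labelled LDL uptake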 (primary screen)
Cells: human Huh7 hepatoma cells
Reagents: siRNA pool against human genes, 18 nM
Duration: about 2 to 2.5 days of knockdown, then 8 h LDL uptake
Conditions: DiI-labelled LDL at 30 µg/ml for 8 h, in lipoprotein-deficient serum medium
Detection: 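Per-cell DiI-LDL intensity by automated imaging; well means scaled to the plate median and given as a robust z-score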
Direction: robust z-score: higher = more LDL uptake after knockdown
Active means: 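a gene counts as active if at least two replicate z-scores exceed ±2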

| target | robust z-score, replicate 1 | robust z-score, replicate 2 | robust z-score, replicate 3 | Outcome |
| --- | --- | --- | --- | --- |
| ANAPC7 | -0.751 | 0.00552 | -1.79 | inactive |
| EXD1 | -0.699 | 2.29 | -0.183 | inactive |
| PYY | -0.417 | -0.129 | 0.211 | inactive |
| H4C5 | -1.9 | 0.0447 | -0.867 | inactive |
| MTHFD2P1 | -0.617 | -0.497 | -0.446 | inactive |
| AGBL5 | 1.88 | 1.29 | 2.37 | inactive |
| DPP10-AS1 | 0.647 | 0.426 | 0.274 | inactive |
| MMP17 | 0.798 | 1.22 | 0.846 | inactive |
| LINC02843 | 0.435 | -0.199 | -0.112 | inactive |
| LRRTM1 | 2.44 | 2.94 | 2.74 | active |
| PVRIG | 1.01 | 0.304 | 1.23 | inactive |
| PNPLA2 | 0.358 | 0.656 | 0.696 | inactive |
| LOC400943 (retired record) | 1.85 | 1.67 | 1.67 | inactive |
| ZNF674-AS1 | -0.119 | 0.0402 | 0.00435 | inactive |
| GTF2B | 2.01 | 1.69 | 1.62 | inactive |
| LOC388174 (retired record) | 1.6 | 1.6 | 1.81 | inactive |
| TMEM254 | 1.09 | 0.848 | 1.02 | inactive |
| CPSF3 | -0.257 | -0.481 | -0.419 | inactive |
| TCF7 | 0.418 | 1.97 | 1.3 | inactive |
| GIMAP2 | 0.784 | 1.49 | 1.73 | inactive |
| SPATA12 | -1.89 | -1.43 | -1.07 | inactive |
| TAT | -0.262 | -0.174 | -0.538 | inactive |
| LOC388519 (retired record) | 1.78 | 1.34 | 1.83 | inactive |
| KRT84 | 0.972 | -0.323 | 0.333 | inactive |
| LRP1 | -0.0428 | -0.0316 | -0.179 | inactive |
| LPP | 0.913 | 0.934 | 0.403 | inactive |
| TAFAZZIN | 1.3 | 0.877 | 1.47 | inactive |
| PGM3 | 0.508 | 1.38 | 0.375 | inactive |
| DNAAF5 | -0.199 | -0.193 | 0.136 | inactive |
| OR10A3 | -0.918 | -1.45 | -1.48 | inactive |
| HIPK3 | 1.28 | -0.671 | 0.963 | inactive |
| CBR4 | 2.29 | 1.64 | 1.68 | inactive |
| ELP6 | 1.21 | 1.71 | -0.924 | inactive |
| HSCB | 0.23 | 0.0409 | -0.691 | inactive |
| LOC388731 (retired record) | -1.2 | -1.28 | -1.72 | inactive |
| CDC37L1 | 0.417 | 0.00451 | 0.21 | inactive |
| C1orf116 | 1.43 | 1.75 | 1.23 | inactive |
| STOML2 | 1.1 | -1.22 | 0.34 | inactive |
| LOXL4 | 0.208 | 0.758 | 0.621 | inactive |
| INO80 | 0.455 | 0.732 | 0.565 | inactive |
| ADPRM | 0.357 | 0.43 | -0.118 | inactive |
| DIRAS2 | 1.57 | 1.83 | 1.67 | inactive |
| NECTIN2 | 1.88 | 1.61 | 1.59 | inactive |
| GNLY | 0.0174 | -0.16 | -0.526 | inactive |
| POPDC3 | 0.802 | 0.83 | 0.237 | inactive |
| CROCCP2 | 0.38 | 0.319 | 0.0847 | inactive |
